Tested on: polyoma virus transformed BHK21/c13 cells, line S100T1
Test: Collocation inhibition test: clonal growth in sparsely and densely seeded areas of a cell density gradient of S100T1 cells in soft agar (Exp 13, 17, 19-26);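 further: soft agar cultures in 24-well plates with a cell density gradient in the top layer, compounds applied from DMSO stocks, clonal growth scored in sparse versus dense areas; grades rise with clonal growth and minus or plus-minus means none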
Details: preliminary results, Exp 13-18, 21-26

For `COc1ccc2cc([C@H](C)C(=O)O)ccc2c1` [Naproxen], the “Clonal growth, L low density area of cell gradient, High” value (high concentration) was “(+)” and the “Clonal growth, L low density area of cell gradient, Low” value (low concentration) was “(+”.
